Results are given in words; binding and its absence hold for the method and conditions named. Binding seen in cells or lysates may run through a third protein. A yes stands for co-enrichment or nearness to the bait. Other partners may have been found.
Columns and labels:
mCLN6-BioID2 (mouse) = molecular target: T1, mCLN6-BioID2 (mouse) (UniProt Q3U466); assay: proximity labelling
T1 sequence: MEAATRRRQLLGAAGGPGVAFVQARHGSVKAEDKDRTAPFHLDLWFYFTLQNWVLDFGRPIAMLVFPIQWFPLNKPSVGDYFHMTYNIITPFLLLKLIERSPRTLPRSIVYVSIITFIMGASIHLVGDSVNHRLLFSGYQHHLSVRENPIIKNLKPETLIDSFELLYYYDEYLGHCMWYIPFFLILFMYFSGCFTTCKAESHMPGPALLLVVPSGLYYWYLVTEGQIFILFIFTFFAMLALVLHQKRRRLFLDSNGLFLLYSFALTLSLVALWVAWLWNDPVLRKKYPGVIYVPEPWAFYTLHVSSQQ

Sequences of proteins named here, by UniProt entry; tags and fusion partners are left off.
UniProt P61264: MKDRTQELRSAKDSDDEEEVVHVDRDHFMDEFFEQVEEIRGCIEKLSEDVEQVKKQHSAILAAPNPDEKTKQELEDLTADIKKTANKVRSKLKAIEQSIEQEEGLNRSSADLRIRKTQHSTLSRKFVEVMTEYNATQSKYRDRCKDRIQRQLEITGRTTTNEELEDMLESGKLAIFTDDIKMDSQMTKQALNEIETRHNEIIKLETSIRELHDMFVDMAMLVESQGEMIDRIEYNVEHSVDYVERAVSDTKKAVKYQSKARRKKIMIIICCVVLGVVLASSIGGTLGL
UniProt Q8BVE3: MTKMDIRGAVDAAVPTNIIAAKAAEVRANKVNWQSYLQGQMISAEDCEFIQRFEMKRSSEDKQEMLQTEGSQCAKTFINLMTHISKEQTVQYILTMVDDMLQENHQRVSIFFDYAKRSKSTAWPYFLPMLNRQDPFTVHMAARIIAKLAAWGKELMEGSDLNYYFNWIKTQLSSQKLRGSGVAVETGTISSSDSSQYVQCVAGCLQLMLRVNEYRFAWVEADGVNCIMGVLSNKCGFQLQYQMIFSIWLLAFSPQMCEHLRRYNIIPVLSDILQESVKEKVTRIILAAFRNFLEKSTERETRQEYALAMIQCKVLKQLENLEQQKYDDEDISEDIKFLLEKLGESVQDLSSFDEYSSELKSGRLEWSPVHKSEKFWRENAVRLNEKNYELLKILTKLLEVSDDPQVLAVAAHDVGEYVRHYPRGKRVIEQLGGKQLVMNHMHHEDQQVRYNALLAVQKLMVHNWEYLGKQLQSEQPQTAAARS

BioID2-hCLN3 (human) = molecular target: T2, BioID2-hCLN3 (human) (UniProt Q13286); assay: proximity labelling
T2 sequence: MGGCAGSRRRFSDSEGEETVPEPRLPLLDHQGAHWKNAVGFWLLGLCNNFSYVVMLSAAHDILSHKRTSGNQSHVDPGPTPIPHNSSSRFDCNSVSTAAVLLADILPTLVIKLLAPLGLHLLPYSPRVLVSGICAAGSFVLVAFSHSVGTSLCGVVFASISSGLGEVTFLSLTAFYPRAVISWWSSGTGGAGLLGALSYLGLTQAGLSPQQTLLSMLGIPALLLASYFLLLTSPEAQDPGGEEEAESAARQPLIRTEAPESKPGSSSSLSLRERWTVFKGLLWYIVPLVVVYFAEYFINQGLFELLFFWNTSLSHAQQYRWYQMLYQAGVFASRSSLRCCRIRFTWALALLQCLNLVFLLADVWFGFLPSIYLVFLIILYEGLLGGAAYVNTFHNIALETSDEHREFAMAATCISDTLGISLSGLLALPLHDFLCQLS

Molecule: Syntaxin 1B (from UniProt P61264 1-288)
- binding (mCLN6-BioID2 (mouse)): binds
- binding (BioID2-hCLN3 (human)): binds

Molecule: ATPase H+ Transporting V1 Subunit H (from UniProt Q8BVE3 1-483)
- binding (mCLN6-BioID2 (mouse)): binds
- binding (BioID2-hCLN3 (human)): binds

B1: Synaptobrevin homolog YKT6 (protein, UniProt Q9CQW1 1-198)
chain: MKLYSLSVLYKGDPKAVLLKAAYDVSSFSFFQRSSVQEFMTFTSQLIVERSGKGSRASVKEQEYLCHVYVRSDSLAGVVIADSEYPSRVAFTLLEKVLDEFSKQVDRIDWPVGSPATIQYTGLDDHLSKYQNPREADPMSKVQAELDETKIILHNTMESLLERGEKLDDLVSKSEVLGTQSKAFYKTARKQNSCCAIM
- binding (mCLN6-BioID2 (mouse)): binds
- binding (BioID2-hCLN3 (human)): binds
